In publication PMC4430907 one finds binding data, which are given here for 1 molecule.

Protein sequences, listed by entry. Tags and fused reporters are not part of them.
UniProt P61769: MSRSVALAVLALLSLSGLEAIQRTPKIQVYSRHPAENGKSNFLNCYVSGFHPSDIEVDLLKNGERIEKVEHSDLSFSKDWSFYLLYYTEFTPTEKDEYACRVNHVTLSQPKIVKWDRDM

The test concerns the target β2-microglobulin (human (endogenous in HK-2)) (UniProt P61769). Kind of test: co-IP; HK-2 cells; immunoprecipitation with a monoclonal anti-β2-M Ab and an anti-HFE Ab (Immunoprecipitation Starter Pack, GE Healthcare); Western blot of HFE; IgG Ab as control.

These are yes or no findings as the source states them, for the method shown. In cells and extracts the contact can be indirect. Some results given as binding are weak or reduced against the parent protein; the word gives no strength.

B1: hemochromatosis (HFE) protein (protein, UniProt Q30201 23-348)
chain: RLLRSHSLHYLFMGASEQDLGLSLFEALGYVDDQLFVFYDHESRRVEPRTPWVSSRISSQMWLQLSQSLKGWDHMFTVDFWTIMENHNHSKESHTLQVILGCEMQEDNSTEGYWKYGYDGQDHLEFCPDTLDWRAAEPRAWPTKLEWERHKIRARQNRAYLERDCPAQLQQLLELGRGVLDQQVPPLVKVTHHVTSSVTTLRCRALNYYPQNITMKWLKDKQPMDAKEFEPKDVLPNGDGTYQGWITLAVPPGEEQRYTCQVEHPGLDQPLIVIWEPSPSGTLVIGVISGIAVFVVILFIGILFIILRKRQGSRGAMGHYVLAERE
In the case of B1, the binding entry was “binds”.
